Assay results: PubChem BioAssay AID504467 (National Center for Advancing Translational Sciences (NCATS), 2011)
Screen size: about 330,000 compounds; about 7,700 (2.3%) were called active. This list was built around the results that the source calls inconclusive (neither active nor inactive); the mix of calls is not that of the screen. Calls follow the shape of the dose curve; as a rule, active = well fitted inhibition curve with a large enough effect; inconclusive = small, poorly fitted or top-dose-only effect, or effect the other way; inactive = flat fitted curve, though single readings scatter. Where the call is inconclusive, the potency comes from a doubtful curve fit.
Potency is read from the fitted curve at half-maximal effect.

Assay: qHTS screen for small molecules that inhibit ELG1-dependent DNA repair in human embryonic kidney (HEK293T) cells expressing luciferase-tagged ELG1; also: nearly all actives have a fitted effect of over 55% in size
Conditions: HEK293T ELG1-luciferase reporter, luminescence, 16 h, DNA damage induced by 5-fluorouridine; series mostly up to 46.1 µM
Summary of the method: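 HEK293T cells expressing luciferase-tagged ELG1 (2,000/well) received 5-Fluorouridine plus compound or DMSO for 16 hr at 37 °C. Luciferase was read by ONE-Glo luminescence after 30 min at room temperature.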
In the case of `CCn1c(CNC(=O)COc2ccc(C(C)C)cc2)nnc1SCC(=O)Nc1ccc(F)cc1`, the Potency is reported as inconclusive: 23.1 µM [inhibitor, partial curve]. For `Cc1ccc(C2NNC(=O)C2NC(=O)c2ccccc2)cc1` (stereo not drawn), the Potency was inconclusive: 18.4 µM [activator, partial curve]. With `O=C(COc1ccc(C(=O)c2ccccc2)cc1)NCC1CCCCC1` the Potency was “inactive”. For `CCCn1nc(C(=O)NNC(=O)CCCOc2ccc(C)cc2)c2ccccc2c1=O`, the Potency was inconclusive: 29.1 µM [inhibitor, single point]. With `COCCNC(=O)c1c(N)n(CCC2=CCCCC2)c2nc3ccccc3nc12` the Potency was inconclusive: 23.1 µM [inhibitor, partial curve, poor fit]. For `COc1cc(C(=O)Nc2ccccc2N2CCOCC2)ccc1OCc1c(C)noc1C`, the Potency was inconclusive: 20.6 µM [inhibitor, partial curve]. With `Cc1cc(NS(=O)(=O)c2ccc(-c3ccccc3)cc2)no1` the Potency was inconclusive: 20.6 µM [activator, single point]. For `c1ccc2cc3[nH]c(CN4CCOCC4)nc3cc2c1`, the Potency was inconclusive: 20.6 µM [activator, single point]. In the case of `CC(=O)Nc1ccc(-c2csc(NC(=O)Cc3cccc(F)c3)n2)cc1`, the Potency is reported as active: 18.3 µM. In the case of `C1=C(c2ccccc2)Nc2nnnn2C1c1cccs1` (stereo not drawn), the Potency is reported as inconclusive: 18.4 µM [activator, single point]. In the case of `Cc1cccc(NC(=O)CSc2nnc(-c3ccc(S(=O)(=O)N4CCOCC4)cc3)n2C)c1`, the Potency is reported as inconclusive: 23.1 µM [inhibitor, single point]. For `Cc1c(Cl)cccc1Nc1nc(N)nc(CSc2ncccn2)n1`, the Potency was inconclusive: 16.4 µM [activator, partial curve]. In the case of `Cc1ccc(NC(=O)CN(C)CC(=O)Nc2ccc(N3CCOCC3)cc2)c(C)c1`, the Potency is reported as inconclusive: 25.9 µM [inhibitor, single point]. For `O=C(CN1C(=O)c2ccccc2C1=O)OCC(=O)c1ccc(F)cc1`, the Potency was inconclusive: 29.1 µM [activator, single point]. In the case of `COCCCN1C(=O)C(O)=C(C(C)=O)C1c1cccc(F)c1` (stereo not drawn), the Potency is reported as “inactive”. In the case of `Cc1nn(CCc2n[nH]c(=S)n2-c2ccc(F)c(Cl)c2)c(C)c1[N+](=O)[O-]`, the Potency is reported as “inactive”. With `Cc1cc(C(=O)O)ccc1N=Cc1c(O)ccc2ccccc12` the Potency was “inactive”. For `O=C(NCC(c1ccco1)N1CCN(c2ccc(F)cc2)CC1)c1ccc2c(c1)OCO2` (stereo not drawn), the Potency was inconclusive: 16.4 µM [inhibitor, single point]. In the case of `CCc1n[nH]c(=S)n1/N=C/c1ccc(N(C)c2ccccc2)cc1`, the Potency is reported as inconclusive: 20.6 µM [inhibitor, single point]. For `COc1ccc(S(=O)(=O)N(C)C[C@H]2Oc3ccc(NS(=O)(=O)c4ccccc4)cc3CC(=O)N([C@H](C)CO)C[C@@H]2C)cc1`, the Potency was inconclusive: 18.3 µM [inhibitor, partial curve, poor fit]. In the case of `CC(Sc1nc2ncc(Cl)cc2[nH]1)C(=O)NC1(C#N)CCCCC1` (stereo not drawn), the Potency is reported as inconclusive: 20.6 µM [inhibitor, single point]. With `CC(NC(=O)c1cccs1)C(S)c1ccccc1` (stereo not drawn) the Potency was “inactive”. With `CC(C)COC(=O)Nc1nnc(SCc2ccccc2F)s1` the Potency was inconclusive: 29.1 µM [activator, single point]. With `CC(=O)c1c(C)nc(-c2ccccc2)nc1N` the Potency was inconclusive: 29.1 µM [activator, single point]. With `CC(=O)COC(=O)CCc1nc2ccccc2[nH]c1=O` the Potency was “inactive”. With `O=C(Nc1ccc2nc(C3CC3)n(Cc3ccccc3)c(=O)c2c1)C1CC1` the Potency was inconclusive: 2.59 µM [activator, full curve]. For `Cc1ccc(S(=O)(=O)N2CCN(C(=O)CN3C(=O)c4ccc([N+](=O)[O-])cc4C3=O)CC2)c(C)c1`, the Potency was “inactive”. For `Fc1cccc(Cl)c1CSc1nnnn1-c1ccc2c(c1)OCO2`, the Potency was inconclusive: 18.4 µM [inhibitor, single point]. With `COCCn1cnc2c(c1=O)c1nc3ccccc3nc1n2/N=C/c1cccc(OC)c1` the Potency was active: 20.6 µM. With `Cc1cc(C)c(S(=O)(=O)NCCCn2ccnc2)cc1C` the Potency was inconclusive: 12.6 µM [activator, partial curve, poor fit]. With `CCc1cc(=O)oc2cc(C)cc(OCC(=O)NCCN3CCOCC3)c12` the Potency was inconclusive: 9.2 µM [activator, partial curve, poor fit]. With `O=C(NCC1CCCO1)c1ccc(NC(=O)c2cccc(Br)c2)cc1` (stereo not drawn) the Potency was inconclusive: 8.91 µM [inhibitor, single point]. In the case of `CC(=O)N(C1=C(Cl)C(=O)c2ccccc2C1=O)C1CCCCC1`, the Potency is reported as active: 16.4 µM. With `CCC(=O)N1N=C(c2ccc(NS(=O)(=O)CC)cc2)CC1c1ccc(C)cc1` (stereo not drawn) the Potency was inconclusive: 23.1 µM [inhibitor, single point]. For `COc1ccccc1C1=NOC(COc2ccc3c(C)cc(=O)oc3c2)C1` (stereo not drawn), the Potency was “inactive”. With `COc1cccc(N2CCN(CC(=O)Nc3ccnn3C3CCCC3)CC2)c1` the Potency was inconclusive: 11.2 µM [inhibitor, partial curve, poor fit]. With `COC(=O)[C@@]12CCCCN1[C@H](c1ccc(-c3cccc(Cl)c3)c(OC)c1)[C@H]1C(=O)N(C)C(=O)[C@H]12` the Potency was inconclusive: 10 µM [inhibitor, partial curve, poor fit]. In the case of `O=C(OCC(=O)N1CCCCCC1)c1ccc(S(=O)(=O)N2CCOCC2)cc1`, the Potency is reported as “inactive”. In the case of `Cc1ccc(C)c(S(=O)(=O)N2CCN(C(=O)C3CC3C)CC2)c1` (stereo not drawn), the Potency is reported as “inactive”. For `COc1ccc(CCn2c(=N)c(C(=O)NCCN3CCOCC3)cc3c(=O)n4cccc(C)c4nc32)cc1OC`, the Potency was inconclusive: 2.31 µM [inhibitor, partial curve]. In the case of `COc1ccc(CN2CCNC(=O)C2CC(=O)NCCc2nc(C)c(C)s2)cc1C` (stereo not drawn), the Potency is reported as inconclusive: 18.3 µM [activator, partial curve, poor fit]. In the case of `COc1ccc(-c2nc(CN3CCN(Cc4ccccc4)CC3)c(C)o2)cc1`, the Potency is reported as inconclusive: 13 µM [inhibitor, partial curve]. In the case of `COc1ccc(CNC(=O)CS(=O)(=O)Cc2nc(-c3ccc(OC)cc3)oc2C)cc1`, the Potency is reported as inconclusive: 23.1 µM [inhibitor, single point]. For `CC(C)CNC(=O)C1CCN(c2ccc(S(=O)(=O)N3CCOCC3)cc2)CC1`, the Potency was “inactive”. In the case of `CC1(C)Cc2nc3sc(C(N)=O)c(N)c3cc2CO1`, the Potency is reported as inconclusive: 20.6 µM [activator, partial curve]. With `Cc1cc(C)c(Nc2cc(S(=O)(=O)O)c(N)c3c2C(=O)c2ccccc2C3=O)c(C)c1` the Potency was inconclusive: 16.4 µM [inhibitor, partial curve]. For `N=c1c(C(=O)NC2CCCCC2)cc2c(=O)n3ccccc3nc2n1Cc1ccc(F)cc1`, the Potency was active: 8.2 µM. With `CCOc1cc(N2CCOCC2)c(OCC)cc1NC(=O)c1ccc2ccccc2n1` the Potency was inconclusive: 14.6 µM [inhibitor, partial curve]. In the case of `Cc1cc(C)nc(NC(=NCCc2c[nH]c3ccccc23)NC(=O)Nc2ccccc2)n1`, the Potency is reported as active: 14.6 µM. With `CCc1ccccc1NC(=O)c1cc(-c2cccc(O)c2)on1` the Potency was inconclusive: 9.2 µM [activator, partial curve, poor fit]. In the case of `O=C(NCc1ccc2c(c1)OCO2)c1ccc(Br)cc1`, the Potency is reported as “inactive”. With `O=C1NC2(CCCC2)N=C1c1ccc(F)cc1` the Potency was “inactive”. For `O=C1NC(c2ccc(Br)cc2)Nc2ccccc21` (stereo not drawn), the Potency was inconclusive: 1.16 µM [activator, single point]. With `CCOc1ccc(N(CC(=O)Nc2ccc(C)c(C)c2)S(=O)(=O)c2c(C)noc2C)cc1` the Potency was inconclusive: 23.1 µM [inhibitor, partial curve]. In the case of `O=C(NCc1cccnc1)c1ccc(CN2CCc3ccccc3C2)cc1`, the Potency is reported as inconclusive: 29.1 µM [inhibitor, single point]. In the case of `CCCC[C@@H]1CNCCN1CCc1cc(C(F)(F)F)cc(C(F)(F)F)c1`, the Potency is reported as “inactive”. In the case of `Cc1ccc(-n2ncc(Cl)c2C(=O)NC2CC2)cc1`, the Potency is reported as inconclusive: 9.2 µM [activator, partial curve]. In the case of `Cc1ccc(Nc2nc(-c3ccncc3)nc3ccccc23)cc1`, the Potency is reported as active: 2.59 µM. With `Cc1cc(NC(=O)CSc2ccc3nnc(CCNS(=O)(=O)c4ccccc4)n3n2)no1` the Potency was “inactive”. For `Cc1cc(Cl)ccc1NC(=O)CSc1nnc(Cc2cccs2)n1Cc1ccco1`, the Potency was inconclusive: 20.6 µM [inhibitor, single point]. In the case of `Cc1cccc(NC(=O)c2ccc(OC3CSC3)cc2)c1`, the Potency is reported as inconclusive: 7.31 µM [activator, partial curve]. With `CCCn1c(=O)c(C(=O)Nc2cccc(C)n2)c(O)c2ccccc21` the Potency was inconclusive: 29.1 µM [activator, single point]. For `O=C1NN(c2ccccc2)C(=O)/C1=C/c1cccs1`, the Potency was inconclusive: 18.4 µM [activator, single point]. In the case of `COc1ccc(C2N(c3ccc(OC)cc3)C(=O)C3CCCN32)cc1` (stereo not drawn), the Potency is reported as inconclusive: 18.4 µM [activator, partial curve, poor fit]. In the case of `CN(C)S(=O)(=O)c1cccc(COc2ccccc2C(=O)Nc2ccccc2)c1`, the Potency is reported as inconclusive: 16.4 µM [inhibitor, single point]. In the case of `Cc1nc(Nc2ccc(F)cc2)[nH]c(=O)c1CCC(C)C`, the Potency is reported as inconclusive: 29.1 µM [inhibitor, single point]. With `COc1ccc(C(=O)C2CCCN(Cc3cccn3-c3cccnc3)C2)cc1OC` (stereo not drawn) the Potency was “inactive”. For `CCN(CC)c1ccc(NC(=O)c2ccc3c(c2)c(C)c(C)n3C)cc1`, the Potency was inconclusive: 29.1 µM [inhibitor, single point].
